Experimental data published in patent US20140011207.
For some of these results: A negative result means that nothing was seen under these conditions. For some of these results: A weaker result is weaker than the reference pair of the same experiment. For some of these results: Construct, isoform or probe ends are uncertain for at least one entry.

Protein sequences, listed by entry. Tags and fused reporters are not part of them. Residues count along the entry.
UniProt P07288, 25-261: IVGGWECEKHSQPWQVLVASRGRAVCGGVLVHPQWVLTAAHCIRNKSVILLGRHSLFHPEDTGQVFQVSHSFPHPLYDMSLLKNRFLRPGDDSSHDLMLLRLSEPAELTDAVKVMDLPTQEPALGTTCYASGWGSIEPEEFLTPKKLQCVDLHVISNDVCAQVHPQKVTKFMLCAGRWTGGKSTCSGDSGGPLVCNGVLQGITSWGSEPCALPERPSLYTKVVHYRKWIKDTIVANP

Experiments:
[1] = target: Prostate-specific antigen (PSA, KLK3) (Homo sapiens) (UniProt P07288); assay: binding assay; settings: purified native protein, label: FITC, single-stranded DNA
[2] = target: Prostate-specific antigen (PSA, KLK3) (Homo sapiens) (UniProt P07288); assay: ELONA; settings: purified native protein, label: 5'-FITC, single-stranded DNA
[3] = aptamer blotting, not among the five clones reported to bind (implied)
[4] = aptamer blotting on nitrocellulose

Q: Does “CATGCTTACCTATAGTGAACTTGTTATGGATTCACTGCCCAGCGTTTCATGCTTACCTATAGTGAAC [PSap#4-1]” bind [1, 3]?
A: no binding

Q: Does “CATGCTTACCTATAGTGAACTTTAATATCAACTTGCCATCAAATATCTTTCATGCTTACCTATAGTGAAC [PSap#4-9]” bind [1, 4]?
A: binds

Q: Does “CATGCTTACCTATAGTGAACTTTACTTAATGATTTCCCGGTTGTCTCTTTCATGCTTACCTATAGTGAAC [PSap#4-3]” bind ([1]; aptamer blotting on nitrocellulose, TBST, 5 mM MgCl2, RT)?
A: binds

Q: Does “CATGCTTACCTATAGTGAACTTTATTAGCCTCCCGGAAGAGCACCTCTTTCATGCTTACCTATAGTGAAC [PSap#4-5]” bind [1, 3]?
A: no binding

Q: Does “CATGCTTACCTATAGTGAACTTTCCGCACCGGGTACGTTTTTTGGCCTTTCATGCTTACCTATAGTGAAC [PSap#4-6]” bind [1, 4]?
A: binds

Q: Does “CATGCTTACCTATAGTGAACTTTCCGTCCTTGCCCATCTAGCGTCTTTTTCATGCTTACCTATAGTGAAC [PSap#4-2]” bind [1, 3]?
A: no binding

Q: Does “CATGCTTACCTATAGTGAACTTTCCGTTGTAGCCTGGCTTCTACCTATTTCATGCTTACCTATAGTGAAC [PSap#4-12]” bind [1, 3]?
A: no binding

Q: Does “CATGCTTACCTATAGTGAACTTTCTGCGTTCTTTCTTCCTACTTCACGTTCATGCTTACCTATAGTGAAC [PSap#4-7]” bind [1, 3]?
A: no binding

Q: Does “CATGCTTACCTATAGTGAACTTTCTGGTGTTTATTGTTTACTGTCCCTTTCATGCTTACCTATAGTGAAC [PSap#4-4]” bind [1, 4]?
A: binds

Q: Does “CATGCTTACCTATAGTGAACTTTGTGTTGCCCGGAACGTCGTGGCCCTTTCATGCTTACCTATAGTGAAC [PSap#4-11]” bind [1, 4]?
A: binds

Q: Does “CATGCTTACCTATAGTGAACTTTTGGCGCAGTACTGGTCTACCTGGCTTTCATGCTTACCTATAGTGAAC [PSap#4-10]” bind [1, 3]?
A: no binding

Q: Does “TTTTTAATATCAACTTGCCATCAAATATCTTT [ΔPSap#4-9]” bind ([2]; parent rank 4, variant of PSap#4-9)?
A: binds more weakly

Q: Does “TTTTTACTTAATGATTTCCCGGTTGTCTCTTT [ΔPSap#4-3]” bind ([2]; parent rank 1, about 48-fold below ΔPSap4#5, variant of PSap#4-3)?
A: binds more weakly

Q: Does “TTTTTCCGCACCGGGTACGTTTTTTGGCCTTT [ΔPSap#4-6]” bind ([2]; parent rank 5, variant of PSap#4-6)?
A: binds more weakly

Q: Does “TTTTTCTGGTGTTTATTGTTTACTGTCCCTTT [ΔPSap#4-4]” bind ([2]; parent rank 2, variant of PSap#4-4)?
A: binds more weakly

Q: Does “TTTTTGTGTTGCCCGGAACGTCGTGGCCCTTT [ΔPSap#4-11]” bind ([2]; parent rank 3, variant of PSap#4-11)?
A: binds more weakly
